Source: PubChem BioAssay AID1224830 (NIAID, 2016)

- Aim: 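Genes whose knock-down alters the TNF-alpha reporter response to LPS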 (primary screen)
- Cells: human THP-1 monocytic leukaemia cells, TNF dual-luciferase reporter clone, PMA-differentiated to macrophage-like cells
- Reagents: siRNA pool against human genes, 50 nM
- Time to read-out: LPS for 4 h, given about 3 days after siRNA transfection
- Conditions: bacterial LPS (TLR4 ligand), 10 ng/ml
- Read-out: 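Ratio of firefly to renilla light, scaled to the plate median and expressed as a robust z-score per replicate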
- Reading the numbers: TNF reporter robust z-score: higher = stronger TNF reporter response to LPS
- Call rule: 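a well is active when its z-score exceeds 2.8 or falls below -1.5; control wells carry no call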
In all, the deposit lists about 18,000 reagents; below is a random part of them. In the full data, about 2,900 (16%) got an active call. 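Calls are made per well; low scores hint the gene aids the LPS response, high scores that it dampens it.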 Repeated entries: four replicate wells of each siRNA pool.

What is on record for C9orf152?
TNF reporter robust z-score: 0.87; activity call: inactive

How did the screen score C9orf152?
TNF reporter robust z-score: 0.14; activity call: inactive

What is on record for C9orf152?
TNF reporter robust z-score: 1.19; activity call: inactive

With C9orf152, how do the results read?
TNF reporter robust z-score: 1.13; activity call: inactive

How did the screen score ZCCHC10?
TNF reporter robust z-score: -0.17; activity call: inactive

With ZCCHC10, what was measured?
TNF reporter robust z-score: 0.13; activity call: inactive

For ZCCHC10, what was measured?
TNF reporter robust z-score: -0.92; activity call: inactive

For ZCCHC10, how do the results read?
TNF reporter robust z-score: -0.07; activity call: inactive

What is on record for KRTAP19-6?
TNF reporter robust z-score: -0.48; activity call: inactive

Which result is listed for KRTAP19-6?
TNF reporter robust z-score: -0.23; activity call: inactive

What is on record for KRTAP19-6?
TNF reporter robust z-score: -0.5; activity call: inactive

For KRTAP19-6, how do the results read?
TNF reporter robust z-score: -0.37; activity call: inactive

Next entries follow.
Which result is listed for RBM28?
TNF reporter robust z-score: 0.03; activity call: inactive

With RBM28, what was measured?
TNF reporter robust z-score: 0.64; activity call: inactive

What did the screen give for RBM28?
TNF reporter robust z-score: 0.71; activity call: inactive

With RBM28, how do the results read?
TNF reporter robust z-score: 2.32; activity call: inactive

What is on record for SP2?
TNF reporter robust z-score: 0.09; activity call: inactive

For SP2, what was measured?
TNF reporter robust z-score: 0.53; activity call: inactive

For SP2, what does the deposit list?
TNF reporter robust z-score: 0.16; activity call: inactive

How did the screen score SP2?
TNF reporter robust z-score: 0.32; activity call: inactive
